Assay results reported in patent US20070264660A1.
These are yes or no findings as the source states them, for the method shown. Binding seen in cells or lysates may run through a third protein. Some binding calls cover weakened binding; strength is not graded here. One block for each binder: values may come before it.

Assays:
[1] = target: T1, PCNA (clamp, proliferating cell nuclear antigen) from Pyrococcus horikoshii (Pyrococcus horikoshii) (UniProt O58398); test: pull-down of PCNA through the histidine tag of RFC complex on nickel resin, with or without ATP, read by SDS-PAGE
T1 sequence: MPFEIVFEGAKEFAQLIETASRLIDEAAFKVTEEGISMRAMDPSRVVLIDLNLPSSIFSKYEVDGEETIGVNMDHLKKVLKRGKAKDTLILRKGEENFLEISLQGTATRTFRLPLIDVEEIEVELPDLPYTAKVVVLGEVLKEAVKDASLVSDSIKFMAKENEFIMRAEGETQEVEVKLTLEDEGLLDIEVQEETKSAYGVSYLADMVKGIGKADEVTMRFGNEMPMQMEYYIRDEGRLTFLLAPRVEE

[2] = target: T2, small subunit of the clamp loader (RFC) without intein sequence from Pyrococcus horikoshii (Pyrococcus horikoshii) (UniProt O57852); test: co-purification through the histidine tag of the large subunit (heparin, nickel resin, gel filtration), read by SDS-PAGE band intensities
T2 sequence: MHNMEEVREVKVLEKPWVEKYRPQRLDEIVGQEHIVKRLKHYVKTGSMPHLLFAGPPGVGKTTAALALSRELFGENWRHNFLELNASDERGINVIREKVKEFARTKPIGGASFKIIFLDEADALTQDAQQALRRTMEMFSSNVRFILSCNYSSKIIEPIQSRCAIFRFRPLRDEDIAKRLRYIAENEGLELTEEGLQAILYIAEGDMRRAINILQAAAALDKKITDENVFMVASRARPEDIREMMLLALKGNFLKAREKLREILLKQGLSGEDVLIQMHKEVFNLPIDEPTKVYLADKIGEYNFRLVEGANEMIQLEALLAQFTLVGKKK

binding [1]: binds
B1: RFC complex (clamp loader, replication factor) from Pyrococcus horikoshii (protein, not shown: small tags and cut ends)
chain 1: MPDVPWIEKYRPRKLSEIVNQEQALEKVRAWIESWLHGNPPKKKALLLAGPPGSGKTTTVYALAHEYNFEVIELNASDERTYNKIARYVQAAYTMDIMGKRRKIIFLDEADNIEPSGAPEIAKLIDKARNPIIMAANHYWEVPKEIRDRAELVEYKRLNQRDVISALVRILKREGITVPKEILTEIAKRSSGDLRAAINDLQTIVAGGYEDAKYVLAYRDVEKTVFQSLGMVFSSDNAKRAKLALMNLDMSPDEFLLWVDENIPHMYLKPEEMARAYEAISRADIYLGRAQRTGNYSLWKYAIDMMTAGVAVAGTKKKGFAKFYPPNTLKMLAESKEERSIRDSIIKKIMKEMHMSKLEALETMKILRTIFENNLDLAAHFTVFLELTEKEVEFLAGKEKAGTIWGKTLSIRRRIKETEKIEEKAVEEKVEEEEAEEEEEEERKEEEKPKAEKKKGKQVTLFDFIKKN
chain 2: T2 sequence

binding [2]: binds
B2: large subunit of the clamp loader (RFC) from Pyrococcus horikoshii (protein, not shown: small tags and cut ends)
chain: B1 chain 1
